Reference: PubChem BioAssay AID504444 (National Center for Advancing Translational Sciences (NCATS), 2011)
The whole screen tested about 360,000 compounds, of which about 7,500 (2.1%) were called active. Inconclusive means that the source gave no clear call. Such entries were picked first, then a sample of the others. The call rests on the fitted dose curve; in most records, active means well fitted inhibition curve with a large enough effect; inconclusive means small, poorly fitted or top-dose-only effect, or effect the other way; inactive means flat fitted curve, though single readings scatter. A potency beside an inconclusive call is a rough fit, not a confirmed value.

Experiment: Nrf2 qHTS screen for inhibitors; further: nearly all actives have a fitted effect of over 60% in size
Conditions: A549 ARE-Fluc reporter, luciferase luminescence, 18-24 h; activity change, negative = inhibition: at 46 µM (top of the series)
Summary of the method: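 In this cell-based qHTS, ARE-driven firefly luciferase in A549 cells reports Nrf2 activity; the luminescent signal after BugLite lysis is the measured value, with a prior CellTiter-Fluor read for cell health.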
On the % scale 0 is the no-effect control and ±100 the full control effect; potency means the concentration at half of the fitted maximal effect.

| SMILES | Potency | activity change, negative = inhibition |
| --- | --- | --- |
| CO/N=C/NC(=O)NOCc1ncc(C(F)(F)F)cc1Cl | inconclusive: 1.16 µM [activator, partial curve, poor fit] |  |
| COC(=O)c1sccc1NC(=O)CN1CCN(c2ccc(F)cc2)CC1 |  | inactive: -12% |
| CCOC(=O)Nc1oc2ccccc2c(=O)c1C | inconclusive: 16.4 µM [falling, partial curve, poor fit] |  |
| O=C(Nc1ccc(Br)cc1)N1CCCC(O)C1 (centres undefined) | inconclusive: 18.4 µM [activator, partial curve] |  |
| COc1ccc(C(NC(=O)CC(C)C)c2c(O)ccc3ccccc23)cc1 (centres undefined) | inconclusive: 29.1 µM [falling, single point] |  |
| Cc1cccc(CNC(=O)c2cnc3sc(N4CCCCC4)nn3c2=O)c1 | inconclusive: 29.1 µM [activator, single point] |  |
| CC1CCN(S(=O)(=O)c2ccc(NC(=S)NC(=O)c3ccc(Cl)cc3)cc2)CC1 |  | inactive: 13.6% |
| Cc1ccc(C)c(OC(=O)C2CSC3(C)CCC(=O)N23)c1C (centres undefined) | inconclusive: 1.64 µM [falling, partial curve, poor fit] |  |
| Cc1cc(C)cc(NC(=O)CCCN2C(=O)C(c3ccccc3)Oc3cccnc32)c1 (centres undefined) | inconclusive: 29.1 µM [falling, single point] |  |
| COc1ccccc1CN1CC(C(=O)NC2CCOCC2)CCC1=O (centres undefined) | inconclusive: 29.1 µM [activator, single point] |  |
| CC(NC(=O)c1ccc(S(=O)(=O)N(C)C)cc1)c1ccccc1 (centres undefined) | inconclusive: 14.6 µM [activator, partial curve] |  |
| CCC(=O)NCCCNc1nc2c(C)cccc2cc1C#N |  | inactive: -12.7% |
| Cc1ccc(C(=O)NCC(c2ccco2)N2CCc3ccccc32)cc1C (centres undefined) | inconclusive: 13 µM [falling, partial curve, poor fit] |  |
| O=C(c1ccc(N2CCCCC2)c([N+](=O)[O-])c1)N1CCN(S(=O)(=O)c2ccccc2)CC1 | inconclusive: 13 µM [falling, partial curve, poor fit] |  |
| CCOc1ccccc1NS(=O)(=O)c1c(-c2ccc(C)cc2)csc1C(=O)OC | inconclusive: 16.4 µM [falling, single point] |  |
| CCCc1cc(N2CCCC(C(=O)NCc3ccc4c(c3)OCO4)C2)n2ncnc2n1 (centres undefined) | inconclusive: 29.1 µM [falling, single point] |  |
| COC(=O)c1sccc1NC(=O)Nc1ccc(OC)cc1 |  | inactive: 3.52% |
| CCOc1ccc(OCCOc2ncnc3ccccc23)cc1 | inconclusive: 6.51 µM [activator, full curve] |  |
| CN1CCN(S(=O)(=O)c2ccc(NC(=O)c3cccs3)cc2)CC1 |  | inactive: 15% |

Two compounds drawn at random from the list so far, as already listed:

| SMILES | Potency | activity change, negative = inhibition |
| --- | --- | --- |
| CCOc1ccc(OCCOc2ncnc3ccccc23)cc1 | inconclusive: 6.51 µM [activator, full curve] |  |
| CC(NC(=O)c1ccc(S(=O)(=O)N(C)C)cc1)c1ccccc1 (centres undefined) | inconclusive: 14.6 µM [activator, partial curve] |  |
